Results on five compounds are retold here after patent US6479233B1, “Electrogenerated chemiluminescence labels for analysis and/or referencing” (IGEN International, Inc., priority 1994, dated 2002).

Molecules are shown by their SMILES.

The data set is described as follows: ECL emission intensity (Perkin-Elmer ECL analyzer, CCD camera, photon counter).

For the compound `[Ru+2].c1ccc(-c2ccccn2)nc1.c1ccc(-c2ccccn2)nc1.c1ccc(-c2ccccn2)nc1` [Ru(bpy)3^2+, tris (2,2-bipyridine)ruthenium(II), reference compound], the “ECL emission, times more intense than the DPAS emission” value (5×10^−6 M, CCD camera, corrected for detector sensitivity) is given as “approx. 100 times”. In addition, for the setting “optimized conditions”, the “detectable concentration, times more dilute than DPAS at similar emission intensities” value is “about 60 times”.

Consider `O=C(O)c1ccc2c(c1)Sc1ccccc1S2` [2-THCOOH, 2-thianthrenecarboxylic acid], for which, for the setting “equal THCOOH concentrations (20 mM) and acquisition times”, the “intensity of emissions, times those of 1-THCOOH” value was 6-7 times.

As to `CN(C)CCCN1c2ccccc2Sc2ccc(Cl)cc21` [CPZ, chlorpromazine, reference compound], under “0.11 mM CPZ, pH 7.5 sodium phosphate buffer, no added coreactant”, the “peak ECL emission intensity above background” value was 80 c/s. For the setting “1.1 mM CPZ, pH 7.5 sodium phosphate buffer, no added coreactant”, the “peak ECL emission intensity” value stood at 850 c/s.

With `O=C(O)c1cccc2c1Sc1ccccc1S2` [1-THCOOH, 1-thianthrenecarboxylic acid], the “peak ECL emission intensity, times less intense than 2-THCOOH” value (sodium phosphate buffer with TPrA) was 6-7 times.

Take `O=S(=O)([O-])c1ccc2c(-c3ccccc3)c3ccccc3c(-c3ccccc3)c2c1.[Na+]` [DPAS, sodium 9,10-diphenylanthracene-2-sulfonate]: for the setting “0.15 M TPrA, pH 7.5 sodium phosphate buffer, Perkin-Elmer analyzer”, the “lowest concentration on ECL intensity vs concentration calibration curve” value worked out at 32 nM. The “ECL emission with oxalate as coreactant” value (oxidative DPAS/oxalate system) is reported as “no emission was observed”.
